Values quoted from earlier work as cited in US20220257540A1, “COMPOSITIONS AND METHODS FOR TREATMENT OF HEPATITIS B VIRUS INFECTION” (ANHUI RONGHANG BIOTECH DEVELOPMENT CO., LTD., priority 2019, published 2022).
Read-outs that look alike come from different tables or passages of the source. At least one read-out could not be matched to a standard name with certainty.

Details: healthy adults, capsules orally, cited from earlier work

COc1cc2c(c(OC)c1OC)-c1ccc(OC)c(=O)cc1[C@@H](NC(C)=O)CC2 [Colchicine, N [5,6,7,9-tetrahydro-1,2,3,10-tetratmethoxy 9-oxobenzo[a]heptalen-7-yl], (S)-acetamide]
time to Cmax (0.6 mg single dose (range 0.7 to […])): 1.3 h
time to Cmax (1.0 mg single dose): 1.07 ± 0.55 h
